Assay results: the supplement of paper PMC7666118
The other results are listed elsewhere or left out.

By UniProt entry, the sequences of proteins in these tests, tags left out. Where a name states a change or a piece, a line headed by the entry shows the natural chain unless it says otherwise.
UniProt Q9HBR0: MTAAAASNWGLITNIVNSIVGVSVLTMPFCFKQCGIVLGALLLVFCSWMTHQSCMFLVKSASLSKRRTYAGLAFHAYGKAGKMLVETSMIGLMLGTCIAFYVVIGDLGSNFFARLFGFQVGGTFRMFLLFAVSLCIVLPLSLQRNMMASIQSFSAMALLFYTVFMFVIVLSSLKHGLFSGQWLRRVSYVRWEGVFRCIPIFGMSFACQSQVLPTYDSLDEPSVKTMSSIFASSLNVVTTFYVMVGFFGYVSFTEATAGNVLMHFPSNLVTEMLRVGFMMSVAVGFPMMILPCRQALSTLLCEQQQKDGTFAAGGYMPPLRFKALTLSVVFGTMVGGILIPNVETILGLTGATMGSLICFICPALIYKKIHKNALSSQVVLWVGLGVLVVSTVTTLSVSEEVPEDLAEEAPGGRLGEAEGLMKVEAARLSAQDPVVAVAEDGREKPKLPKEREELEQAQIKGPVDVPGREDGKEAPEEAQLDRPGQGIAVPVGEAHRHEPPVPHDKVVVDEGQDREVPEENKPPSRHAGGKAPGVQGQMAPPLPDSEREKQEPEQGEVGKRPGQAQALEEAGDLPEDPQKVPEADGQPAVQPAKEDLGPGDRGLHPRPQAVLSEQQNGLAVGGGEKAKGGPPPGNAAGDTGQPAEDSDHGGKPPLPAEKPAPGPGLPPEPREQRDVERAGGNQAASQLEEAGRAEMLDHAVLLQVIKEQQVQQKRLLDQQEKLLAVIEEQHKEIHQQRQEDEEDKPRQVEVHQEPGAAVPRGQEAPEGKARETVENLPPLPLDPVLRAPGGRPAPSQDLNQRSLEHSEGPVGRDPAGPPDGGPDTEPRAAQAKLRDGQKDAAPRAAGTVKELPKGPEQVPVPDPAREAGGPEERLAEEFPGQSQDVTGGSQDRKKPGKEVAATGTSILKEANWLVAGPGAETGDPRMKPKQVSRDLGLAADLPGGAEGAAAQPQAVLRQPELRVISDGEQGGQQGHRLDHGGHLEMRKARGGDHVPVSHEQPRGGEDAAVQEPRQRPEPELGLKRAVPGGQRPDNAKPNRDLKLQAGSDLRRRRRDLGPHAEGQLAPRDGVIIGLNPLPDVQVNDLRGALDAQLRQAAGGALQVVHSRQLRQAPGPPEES
UniProt Q9NRG4: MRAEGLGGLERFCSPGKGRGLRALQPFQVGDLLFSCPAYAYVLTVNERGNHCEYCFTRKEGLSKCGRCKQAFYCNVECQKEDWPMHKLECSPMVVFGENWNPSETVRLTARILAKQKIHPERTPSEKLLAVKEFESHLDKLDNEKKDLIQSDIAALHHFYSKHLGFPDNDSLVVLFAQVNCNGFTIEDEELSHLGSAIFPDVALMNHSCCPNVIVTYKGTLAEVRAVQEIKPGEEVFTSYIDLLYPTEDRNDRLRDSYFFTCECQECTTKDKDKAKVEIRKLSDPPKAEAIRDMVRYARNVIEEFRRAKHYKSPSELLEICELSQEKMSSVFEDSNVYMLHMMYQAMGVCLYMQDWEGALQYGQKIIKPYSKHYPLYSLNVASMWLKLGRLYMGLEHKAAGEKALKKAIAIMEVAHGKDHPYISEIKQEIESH
UniProt Q9NRH2: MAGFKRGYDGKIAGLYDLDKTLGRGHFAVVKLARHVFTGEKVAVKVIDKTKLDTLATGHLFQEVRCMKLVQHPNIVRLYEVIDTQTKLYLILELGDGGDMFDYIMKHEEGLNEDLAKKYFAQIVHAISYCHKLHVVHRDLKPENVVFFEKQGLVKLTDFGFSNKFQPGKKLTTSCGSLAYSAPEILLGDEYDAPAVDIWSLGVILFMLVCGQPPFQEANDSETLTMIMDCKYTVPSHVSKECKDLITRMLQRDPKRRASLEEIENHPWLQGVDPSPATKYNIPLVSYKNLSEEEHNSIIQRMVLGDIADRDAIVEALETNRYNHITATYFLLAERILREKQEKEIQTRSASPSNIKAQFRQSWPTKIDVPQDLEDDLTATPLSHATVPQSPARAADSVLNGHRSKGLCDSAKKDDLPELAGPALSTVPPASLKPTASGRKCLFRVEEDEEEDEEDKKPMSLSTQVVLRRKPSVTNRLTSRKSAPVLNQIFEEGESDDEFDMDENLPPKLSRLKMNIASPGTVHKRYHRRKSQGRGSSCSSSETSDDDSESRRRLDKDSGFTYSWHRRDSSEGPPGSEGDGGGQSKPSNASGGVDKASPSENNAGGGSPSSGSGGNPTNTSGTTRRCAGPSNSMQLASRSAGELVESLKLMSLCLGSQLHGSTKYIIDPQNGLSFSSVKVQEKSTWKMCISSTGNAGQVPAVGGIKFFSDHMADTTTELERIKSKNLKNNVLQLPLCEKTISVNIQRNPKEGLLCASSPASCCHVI
UniProt Q8WUX1, whole entry: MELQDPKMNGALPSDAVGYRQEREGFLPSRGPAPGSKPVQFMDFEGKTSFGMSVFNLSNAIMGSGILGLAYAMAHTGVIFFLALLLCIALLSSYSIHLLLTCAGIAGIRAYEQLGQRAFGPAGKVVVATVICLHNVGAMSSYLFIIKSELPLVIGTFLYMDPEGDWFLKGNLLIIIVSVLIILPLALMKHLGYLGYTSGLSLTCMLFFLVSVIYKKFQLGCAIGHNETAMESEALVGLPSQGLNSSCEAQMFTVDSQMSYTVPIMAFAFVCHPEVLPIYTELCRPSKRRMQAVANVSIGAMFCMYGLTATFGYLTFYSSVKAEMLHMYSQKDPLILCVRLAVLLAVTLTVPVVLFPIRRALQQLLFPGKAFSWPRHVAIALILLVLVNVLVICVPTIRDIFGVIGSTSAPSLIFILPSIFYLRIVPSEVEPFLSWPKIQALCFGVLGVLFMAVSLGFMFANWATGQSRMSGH
UniProt Q9UQE7: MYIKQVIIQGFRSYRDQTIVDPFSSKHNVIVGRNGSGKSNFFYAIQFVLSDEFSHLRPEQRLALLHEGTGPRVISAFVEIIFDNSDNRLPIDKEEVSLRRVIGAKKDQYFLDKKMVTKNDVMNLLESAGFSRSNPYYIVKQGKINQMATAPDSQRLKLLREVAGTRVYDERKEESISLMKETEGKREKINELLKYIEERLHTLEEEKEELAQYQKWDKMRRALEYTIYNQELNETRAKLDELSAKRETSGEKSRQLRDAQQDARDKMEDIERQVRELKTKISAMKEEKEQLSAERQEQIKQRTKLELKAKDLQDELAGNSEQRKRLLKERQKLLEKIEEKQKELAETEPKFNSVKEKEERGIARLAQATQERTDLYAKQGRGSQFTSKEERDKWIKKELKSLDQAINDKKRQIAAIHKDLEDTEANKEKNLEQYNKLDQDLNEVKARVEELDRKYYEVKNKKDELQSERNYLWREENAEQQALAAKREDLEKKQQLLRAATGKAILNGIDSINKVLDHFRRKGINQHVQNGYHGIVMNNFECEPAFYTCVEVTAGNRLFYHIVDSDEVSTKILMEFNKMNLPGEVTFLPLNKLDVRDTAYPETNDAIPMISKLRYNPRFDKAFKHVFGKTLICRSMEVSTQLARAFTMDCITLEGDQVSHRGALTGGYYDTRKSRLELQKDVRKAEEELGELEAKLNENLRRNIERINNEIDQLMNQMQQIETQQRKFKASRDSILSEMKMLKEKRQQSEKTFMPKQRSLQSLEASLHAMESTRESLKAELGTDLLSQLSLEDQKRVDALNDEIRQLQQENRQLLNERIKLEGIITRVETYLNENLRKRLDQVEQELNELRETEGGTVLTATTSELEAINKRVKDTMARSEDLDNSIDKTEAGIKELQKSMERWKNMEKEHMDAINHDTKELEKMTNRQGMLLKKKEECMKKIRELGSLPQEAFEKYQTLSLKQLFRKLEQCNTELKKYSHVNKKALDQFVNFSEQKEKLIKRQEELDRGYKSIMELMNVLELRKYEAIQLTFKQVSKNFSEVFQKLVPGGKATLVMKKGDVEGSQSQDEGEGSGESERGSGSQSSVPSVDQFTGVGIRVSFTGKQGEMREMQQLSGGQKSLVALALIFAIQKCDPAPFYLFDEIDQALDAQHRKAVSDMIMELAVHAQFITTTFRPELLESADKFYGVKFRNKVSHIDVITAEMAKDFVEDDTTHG
UniProt Q9H2G2: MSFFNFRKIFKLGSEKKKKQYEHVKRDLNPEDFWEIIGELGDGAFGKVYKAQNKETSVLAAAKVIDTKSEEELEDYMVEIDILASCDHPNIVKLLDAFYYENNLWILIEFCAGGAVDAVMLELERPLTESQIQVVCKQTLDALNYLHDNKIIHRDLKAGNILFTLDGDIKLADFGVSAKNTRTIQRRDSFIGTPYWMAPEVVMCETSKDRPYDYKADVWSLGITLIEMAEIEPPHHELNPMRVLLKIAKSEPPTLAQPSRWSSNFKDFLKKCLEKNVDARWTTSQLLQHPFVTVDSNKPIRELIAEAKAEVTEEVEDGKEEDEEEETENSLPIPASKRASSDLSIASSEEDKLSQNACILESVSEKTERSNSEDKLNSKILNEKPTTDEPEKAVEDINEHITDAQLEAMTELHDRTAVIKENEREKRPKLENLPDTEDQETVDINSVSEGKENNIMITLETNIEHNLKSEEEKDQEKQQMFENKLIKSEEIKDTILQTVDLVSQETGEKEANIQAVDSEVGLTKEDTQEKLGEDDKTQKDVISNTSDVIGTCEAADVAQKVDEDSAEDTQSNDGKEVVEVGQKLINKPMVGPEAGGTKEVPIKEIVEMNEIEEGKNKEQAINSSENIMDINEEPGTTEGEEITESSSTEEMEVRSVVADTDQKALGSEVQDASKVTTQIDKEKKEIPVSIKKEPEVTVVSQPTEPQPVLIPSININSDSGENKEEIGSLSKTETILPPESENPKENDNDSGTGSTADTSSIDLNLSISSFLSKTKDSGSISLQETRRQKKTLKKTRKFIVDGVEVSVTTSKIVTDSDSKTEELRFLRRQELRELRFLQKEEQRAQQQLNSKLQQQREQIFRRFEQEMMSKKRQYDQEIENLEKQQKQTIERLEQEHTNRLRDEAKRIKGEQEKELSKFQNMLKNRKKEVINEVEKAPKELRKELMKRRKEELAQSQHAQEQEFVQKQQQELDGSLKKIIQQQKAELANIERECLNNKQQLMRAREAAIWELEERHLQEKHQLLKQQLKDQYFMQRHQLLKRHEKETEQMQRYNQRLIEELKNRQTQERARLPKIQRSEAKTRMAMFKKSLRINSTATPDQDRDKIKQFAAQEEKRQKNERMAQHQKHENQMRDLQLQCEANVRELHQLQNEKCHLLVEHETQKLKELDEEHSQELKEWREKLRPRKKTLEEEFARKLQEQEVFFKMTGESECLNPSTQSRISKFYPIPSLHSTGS
UniProt Q68D06: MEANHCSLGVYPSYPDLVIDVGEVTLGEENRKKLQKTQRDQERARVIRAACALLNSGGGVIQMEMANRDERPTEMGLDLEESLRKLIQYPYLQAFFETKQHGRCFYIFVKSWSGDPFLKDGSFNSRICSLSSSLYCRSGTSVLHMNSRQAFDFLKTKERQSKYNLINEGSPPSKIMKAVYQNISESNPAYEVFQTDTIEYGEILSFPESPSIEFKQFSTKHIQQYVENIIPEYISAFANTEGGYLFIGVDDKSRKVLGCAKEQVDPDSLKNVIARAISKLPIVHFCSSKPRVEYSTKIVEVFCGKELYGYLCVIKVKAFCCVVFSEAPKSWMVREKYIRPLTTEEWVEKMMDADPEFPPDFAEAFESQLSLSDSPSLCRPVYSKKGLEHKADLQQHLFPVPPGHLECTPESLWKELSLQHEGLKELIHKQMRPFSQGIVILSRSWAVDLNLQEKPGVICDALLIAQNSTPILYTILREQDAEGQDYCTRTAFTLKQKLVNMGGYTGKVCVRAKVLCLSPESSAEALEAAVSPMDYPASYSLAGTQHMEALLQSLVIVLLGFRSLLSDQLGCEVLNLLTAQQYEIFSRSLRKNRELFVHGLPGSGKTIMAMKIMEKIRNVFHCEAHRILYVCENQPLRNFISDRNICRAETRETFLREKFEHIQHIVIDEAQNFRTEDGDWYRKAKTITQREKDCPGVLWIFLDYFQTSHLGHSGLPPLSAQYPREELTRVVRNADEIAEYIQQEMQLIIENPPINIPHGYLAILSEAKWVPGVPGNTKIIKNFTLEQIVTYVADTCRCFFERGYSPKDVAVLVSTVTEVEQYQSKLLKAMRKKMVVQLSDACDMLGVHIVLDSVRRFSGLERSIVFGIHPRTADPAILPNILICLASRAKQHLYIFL
UniProt Q9BX95: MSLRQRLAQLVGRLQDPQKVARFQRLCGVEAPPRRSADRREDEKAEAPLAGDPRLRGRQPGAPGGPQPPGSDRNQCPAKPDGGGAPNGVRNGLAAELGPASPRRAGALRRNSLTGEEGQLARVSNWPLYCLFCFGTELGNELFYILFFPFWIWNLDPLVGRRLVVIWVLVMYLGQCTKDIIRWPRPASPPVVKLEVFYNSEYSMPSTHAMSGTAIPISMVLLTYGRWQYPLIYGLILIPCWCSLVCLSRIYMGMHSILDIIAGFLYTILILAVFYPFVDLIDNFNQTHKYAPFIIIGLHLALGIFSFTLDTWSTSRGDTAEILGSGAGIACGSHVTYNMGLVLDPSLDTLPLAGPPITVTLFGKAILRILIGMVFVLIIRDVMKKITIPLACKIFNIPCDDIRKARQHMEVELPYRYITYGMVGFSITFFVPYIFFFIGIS

Compound: COc1ccc(Cn2ccc3cc(C)c(C(=O)NO)cc32)cc1
Assay: dose-dependent thermal stabilisation call (2D-TPP, DLPTP, 10% FDR) (binary (1 = stabilised)); higher = stabilised by the compound
Settings: system: HL-60 intact cells; concentration range 0.04-10 µM
Method: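 2D thermal proteome profiling in intact HL-60 cells treated with BRD-3811 (0, 0.04, 0.29, 2, 10 uM) for 90 min at 37 C, then heated 3 min at one of 12 temperatures (42-63.9 C). Soluble protein was quantified by TMT10 MS. The value is the DLPTP call of the paper: dose-dependent thermal stabilisation over all temperatures at 10% FDR (F-test of a dose-response against a flat model); one experiment, one call per tested protein.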

Row | Target | dose-dependent thermal stabilisation call
1 | SERPINB10 (UniProt P48595) | inactive: 0
2 | SFT2D2 (UniProt O95562) | inactive: 0
3 | SNRPD3 (UniProt P62318) | inactive: 0
4 | SNX11 (UniProt Q9Y5W9) | inactive: 0
5 | SNX5 (UniProt Q9Y5X3) | inactive: 0
6 | SLC38A10 (UniProt Q9HBR0) | inactive: 0
7 | SLC25A4 (UniProt P12235) | inactive: 0
8 | SH3BGRL (UniProt O75368) | inactive: 0
9 | SH3KBP1 (UniProt Q96B97) | inactive: 0
10 | SMYD2 (UniProt Q9NRG4) | inactive: 0
11 | SNRK (UniProt Q9NRH2) | inactive: 0
12 | SLC16A7 (UniProt O60669) | inactive: 0
13 | SLC39A6 (UniProt Q13433) | inactive: 0
14 | SERINC3 (UniProt Q13530) | inactive: 0
15 | SLC38A5 (UniProt Q8WUX1) | inactive: 0
16 | SNW1 (UniProt Q13573) | inactive: 0
17 | SLC41A3 (UniProt Q96GZ6) | inactive: 0
18 | SMC6 (UniProt Q96SB8) | inactive: 0

Reformatted comma-delimited: part of the list above.
Row,Target,dose-dependent thermal stabilisation call
3,SNRPD3 (UniProt P62318),inactive: 0
9,SH3KBP1 (UniProt Q96B97),inactive: 0

Additional records.

Row | Target | dose-dependent thermal stabilisation call
19 | SLC43A1 (UniProt O75387) | inactive: 0
20 | SNRNP27 (UniProt Q8WVK2) | inactive: 0
21 | SIRT2 (UniProt Q8IXJ6) | inactive: 0
22 | SLC39A11 (UniProt Q8N1S5) | inactive: 0
23 | SLCO4A1 (UniProt Q96BD0) | inactive: 0
24 | SOD1 (UniProt P00441) | inactive: 0
25 | SMC3 (UniProt Q9UQE7) | inactive: 0
26 | SFRS11 (UniProt Q05519) | inactive: 0
27 | SMNDC1 (UniProt O75940) | inactive: 0
28 | SNX30 (UniProt Q5VWJ9) | inactive: 0
29 | SFRS8 (UniProt Q12872) | inactive: 0
30 | SLC35B1 (UniProt P78383) | inactive: 0
31 | SLK (UniProt Q9H2G2) | inactive: 0
32 | SLFN13 (UniProt Q68D06) | inactive: 0
33 | SKP1 (UniProt P63208) | inactive: 0
34 | SGPP1 (UniProt Q9BX95) | inactive: 0
35 | SLC7A6 (UniProt Q92536) | inactive: 0
36 | SLC20A1 (UniProt Q8WUM9) | inactive: 0
